Experimental data as given in PMC8229658 (Viruses, 2021).
No constants are given. Whether binding was seen depends on the method and setting. In cells and extracts the contact can be indirect. These calls come from enrichment with a bait or labelling near it, and not all partners need be listed.

The chains behind the UniProt entries cited, without tags or fusion partners.
UniProt P0DMV8: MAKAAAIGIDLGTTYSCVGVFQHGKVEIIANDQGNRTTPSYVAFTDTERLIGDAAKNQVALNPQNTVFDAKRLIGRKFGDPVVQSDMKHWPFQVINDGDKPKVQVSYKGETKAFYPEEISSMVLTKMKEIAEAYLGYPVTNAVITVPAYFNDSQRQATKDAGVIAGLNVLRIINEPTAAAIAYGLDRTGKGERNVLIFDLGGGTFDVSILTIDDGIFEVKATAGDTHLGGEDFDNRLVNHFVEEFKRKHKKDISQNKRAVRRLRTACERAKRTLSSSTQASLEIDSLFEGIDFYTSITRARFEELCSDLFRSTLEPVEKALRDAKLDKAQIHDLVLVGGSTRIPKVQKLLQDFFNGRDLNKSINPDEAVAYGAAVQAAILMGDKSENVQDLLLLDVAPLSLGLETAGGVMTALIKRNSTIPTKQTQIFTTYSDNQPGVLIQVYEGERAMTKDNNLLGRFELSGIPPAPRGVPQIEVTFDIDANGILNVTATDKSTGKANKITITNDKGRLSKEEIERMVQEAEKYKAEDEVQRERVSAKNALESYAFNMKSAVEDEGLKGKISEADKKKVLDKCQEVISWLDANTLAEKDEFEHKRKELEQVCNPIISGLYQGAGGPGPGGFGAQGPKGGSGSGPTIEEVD
UniProt P11142: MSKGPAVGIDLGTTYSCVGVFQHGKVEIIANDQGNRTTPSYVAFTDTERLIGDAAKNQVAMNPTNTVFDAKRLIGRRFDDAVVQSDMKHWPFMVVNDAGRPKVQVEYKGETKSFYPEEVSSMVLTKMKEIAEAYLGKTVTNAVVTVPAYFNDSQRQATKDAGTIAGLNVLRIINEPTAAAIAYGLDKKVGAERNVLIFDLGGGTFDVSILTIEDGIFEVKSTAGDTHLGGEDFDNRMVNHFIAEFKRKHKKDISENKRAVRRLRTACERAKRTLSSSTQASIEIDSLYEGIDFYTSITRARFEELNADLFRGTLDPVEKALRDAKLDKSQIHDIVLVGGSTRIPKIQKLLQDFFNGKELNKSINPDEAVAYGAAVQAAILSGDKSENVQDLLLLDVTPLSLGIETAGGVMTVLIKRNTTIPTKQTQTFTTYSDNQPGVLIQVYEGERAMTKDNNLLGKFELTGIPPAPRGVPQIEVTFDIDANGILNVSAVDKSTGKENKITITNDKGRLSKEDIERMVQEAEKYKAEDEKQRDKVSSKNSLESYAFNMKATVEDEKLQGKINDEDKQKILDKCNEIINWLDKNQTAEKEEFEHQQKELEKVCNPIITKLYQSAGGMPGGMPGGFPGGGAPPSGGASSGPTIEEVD
UniProt Q9Y265: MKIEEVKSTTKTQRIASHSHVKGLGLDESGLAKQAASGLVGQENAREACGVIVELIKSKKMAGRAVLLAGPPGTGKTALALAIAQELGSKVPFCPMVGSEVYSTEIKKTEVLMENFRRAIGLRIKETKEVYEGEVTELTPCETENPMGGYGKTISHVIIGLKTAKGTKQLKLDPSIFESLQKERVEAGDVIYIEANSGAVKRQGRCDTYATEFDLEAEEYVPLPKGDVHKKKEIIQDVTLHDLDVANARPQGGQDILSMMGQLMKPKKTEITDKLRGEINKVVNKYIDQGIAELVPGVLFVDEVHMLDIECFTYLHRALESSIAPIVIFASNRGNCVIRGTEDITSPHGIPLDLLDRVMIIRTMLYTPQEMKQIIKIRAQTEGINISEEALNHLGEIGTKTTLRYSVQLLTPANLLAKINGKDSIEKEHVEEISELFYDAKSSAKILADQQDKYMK
UniProt Q99729: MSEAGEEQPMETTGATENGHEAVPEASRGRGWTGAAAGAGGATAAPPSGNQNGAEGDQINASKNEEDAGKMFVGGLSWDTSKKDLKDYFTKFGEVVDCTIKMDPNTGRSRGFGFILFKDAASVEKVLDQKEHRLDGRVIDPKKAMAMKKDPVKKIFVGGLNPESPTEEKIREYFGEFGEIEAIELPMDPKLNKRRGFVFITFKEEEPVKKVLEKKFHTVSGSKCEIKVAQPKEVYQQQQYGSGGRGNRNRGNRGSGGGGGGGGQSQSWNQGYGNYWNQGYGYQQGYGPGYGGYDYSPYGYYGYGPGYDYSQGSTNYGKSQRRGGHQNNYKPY
UniProt O60506: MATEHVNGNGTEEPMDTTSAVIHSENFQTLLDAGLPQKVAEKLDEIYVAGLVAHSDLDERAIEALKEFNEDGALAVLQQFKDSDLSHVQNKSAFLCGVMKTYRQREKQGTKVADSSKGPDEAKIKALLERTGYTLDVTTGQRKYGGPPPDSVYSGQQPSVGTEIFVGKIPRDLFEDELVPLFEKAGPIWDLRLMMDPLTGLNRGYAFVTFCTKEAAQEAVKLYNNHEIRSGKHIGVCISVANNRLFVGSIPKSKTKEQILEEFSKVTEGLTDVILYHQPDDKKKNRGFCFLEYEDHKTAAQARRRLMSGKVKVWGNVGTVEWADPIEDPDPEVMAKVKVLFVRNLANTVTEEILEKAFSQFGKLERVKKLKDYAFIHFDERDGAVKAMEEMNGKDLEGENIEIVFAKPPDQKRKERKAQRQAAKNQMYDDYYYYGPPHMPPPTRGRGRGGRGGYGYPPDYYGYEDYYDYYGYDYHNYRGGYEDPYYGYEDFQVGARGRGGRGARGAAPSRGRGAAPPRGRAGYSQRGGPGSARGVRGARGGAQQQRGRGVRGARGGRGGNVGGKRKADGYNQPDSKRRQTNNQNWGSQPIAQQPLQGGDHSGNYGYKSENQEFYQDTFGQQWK

B1: hnRNP L (protein, UniProt P14866 1-589)
chain: MSRRLLPRAEKRRRRLEQRQQPDEQRRRSGAMVKMAAAGGGGGGGRYYGGGSEGGRAPKRLKTDNAGDQHGGGGGGGGGAGAAGGGGGGENYDDPHKTPASPVVHIRGLIDGVVEADLVEALQEFGPISYVVVMPKKRQALVEFEDVLGACNAVNYAADNQIYIAGHPAFVNYSTSQKISRPGDSDDSRSVNSVLLFTILNPIYSITTDVLYTICNPCGPVQRIVIFRKNGVQAMVEFDSVQSAQRAKASLNGADIYSGCCTLKIEYAKPTRLNVFKNDQDTWDYTNPNLSGQGDPGSNPNKRQRQPPLLGDHPAEYGGPHGGYHSHYHDEGYGPPPPHYEGRRMGPPVGGHRRGPSRYGPQYGHPPPPPPPPEYGPHADSPVLMVYGLDQSKMNCDRVFNVFCLYGNVEKVKFMKSKPGAAMVEMADGYAVDRAITHLNNNFMFGQKLNVCVSKQPAIMPGQSYGLEDGSCSYKDFSESRNNRFSTPEQAAKNRIQHPSNVLHFFNAPLEVTEENFFEICDELGVKRPSSVKVFSGKSERSSSGLLEWESKSDALETLGFLNHYQMKNPNGPYPYTLKLCFSTAQHAS
B2: hnRNP D-like (protein, UniProt O14979 1-420)
chain: MEVPPRLSHVPPPLFPSAPATLASRSLSHWRPRPPRQLAPLLPSLAPSSARQGARRAQRHVTAQQPSRLAGGAAIKGGRRRRPDLFRRHFKSSSIQRSAAAAAATRTARQHPPADSSVTMEDMNEYSNIEEFAEGSKINASKNQQDDGKMFIGGLSWDTSKKDLTEYLSRFGEVVDCTIKTDPVTGRSRGFGFVLFKDAASVDKVLELKEHKLDGKLIDPKRAKALKGKEPPKKVFVGGLSPDTSEEQIKEYFGAFGEIENIELPMDTKTNERRGFCFITYTDEEPVKKLLESRYHQIGSGKCEIKVAQPKEVYRQQQQQQKGGRGAAAGGRGGTRGRGRGQGQNWNQGFNNYYDQGYGNYNSAYGGDQNYSGYGGYDYTGYNYGNYGYGQGYADYSGQQSTYGKASRGGGNHQNNYQPY

Target: Flag-tagged NS1 protein of influenza A/PR/8/34 (PR8) virus (influenza A virus A/PR/8/34 (PR8)) (UniProt P03496)
Assay: affinity purification with mass spectrometry

| Molecule | binding |
| --- | --- |
| Heat shock 70 kDa protein 1A/1B (from UniProt P0DMV8 1-641) | binds |
| Heat shock cognate 71 kDa protein (from UniProt P11142 1-646) | binds |
| RuvB-like protein 1 (RuvBL1), endogenous (from UniProt Q9Y265 1-456) | binds |
| hnRNP A/B (from UniProt Q99729 1-332) | binds |
| hnRNP K (from UniProt P61978 1-463) | binds |
| hnRNP Q (from UniProt O60506 1-623) | binds |
| B1 | binds |
| B2 | binds |
